The nature of the assay: qHTS Assay for Lipid Storage Modulators in Drosophila S3 Cells.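 For cell number change: cells counted by Cell Tracker Red CMTPX staining in the red channel.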 The settings on record: BODIPY lipid droplet fluorescence, 18-24 h; for cell number change: measured here: cell count max response, cells fed with added oleic acid. A digest of the protocol:
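Drosophila S3 cells got compounds at several concentrations plus oleic acid (400 uM solution). Laser-scanning cytometry with 488 nm excitation read lipid droplets at 500-530 nm and cells at 575-640 nm. Percent activity was relative to 20 uM Triacsin C.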

[1] abbreviates: measured here: cell number channel AC50, cells fed with added oleic acid.
Where [2] appears, read: measured here: lipid fluorescence (Fed channel) AC50, cells fed with added oleic acid.

The text below walks through data of PubChem BioAssay AID2685 (National Center for Advancing Translational Sciences (NCATS), 2010).

Some of the results follow. Further columns of the screen follow, without active or inactive calls. The list favours compounds with an active or inconclusive main result. Words in brackets tell the shape of the fitted curve; partial curves, single points and poor fits give uncertain potencies.

In general, AC50 refers to the concentration giving half of the maximal activity seen. Lower therefore signals activity at low concentration.

Take `O=C(NC1CCCC1)C(c1ccncc1)N(CC1CCCO1)C(=O)Cn1nnc(-c2cccs2)n1` (stereo not given): the cell number change was found to be 42.7%. Besides, under setting [1], the concentration at half-maximal activity (AC50) is 25.9 µM [rising, single point]. `COc1cccc2cc(C(=O)N3CCN(C/C=C/c4ccccc4)CC3)c(=O)oc12`: the cell number change worked out at 3.24%. Further, the AC50 under setting [2] is 0.82 µM [rising, full curve, poor fit]. Consider `Cn1c(NC(=O)CC2CCCCC2)cc(=O)n(C)c1=O`, for which the cell number change amounted to 15.6%. In addition, the AC50 under setting [2] was 0.146 µM [rising, full curve, poor fit]. For the compound `Cc1nn(-c2ccccc2)c(=S)c2ccccc12`, the cell number change stood at 26.9%. With `COc1cc(C(=S)N2CCOCC2)ccc1OC(=O)c1ccc([N+](=O)[O-])cc1[N+](=O)[O-]`, the cell number change was -5.74%. For the same compound, the AC50 under setting [2] is 0.116 µM [rising, full curve, poor fit].

For the compound `O=C(O)CCC(=O)Nc1ccc(-c2csc(Nc3cccc4ccccc34)n2)cc1`, the cell number change was -14.5%. The AC50 under setting [1] was 0.651 µM [falling, full curve, poor fit]. The AC50 under setting [2] is 0.82 µM [falling, full curve, poor fit]. On to `O=C(CSc1nnc(CNC(=O)c2c(F)cccc2Cl)o1)NC1CCCC1`, for which the cell number change was -19.8%. Also, the AC50 under setting [2] is 29.1 µM [rising, single point]. On to `O=C(CCCc1ccccc1)NCc1ccccc1`, for which the cell number change is -1.62%. As for `Fc1ccc(/C=N/N2CCN(Cc3ccccc3)CC2)cc1`, the cell number change stood at 5.56%. Further, the AC50 under setting [2] was 20.6 µM [falling, single point]. For `Cc1ccccc1C(=O)Nc1cccc(NC(=O)c2ccccc2[N+](=O)[O-])c1`, the cell number change was -1.69%. In addition, the AC50 under setting [2] was 6.51 µM [falling, single point]. As to `CC1CN(S(=O)(=O)c2cccc(C(=O)NNC(=O)C(C)Oc3ccccc3F)c2)CC(C)O1` (stereo not given), the cell number change is -18.9%. In the case of `Cc1ccc(-n2c(=O)cc(N3CC(C)CC(C)C3)[nH]c2=O)cc1` (stereo not given), the cell number change is -48%. Moreover, the AC50 under setting [1] was 18.4 µM [falling, partial curve, poor fit]. Further, the AC50 under setting [2] is 14.6 µM [falling, partial curve, poor fit].

As for `CC(=O)c1c(N)c(C#N)c(C)n1-c1ccc(Br)cc1`, the cell number change amounted to 100%. Further, the AC50 under setting [1] was 3.66 µM [rising, full curve]. Besides, the AC50 under setting [2] was 2.59 µM [rising, full curve].

Turning to `CN(C)CCNC(=S)Nc1ccc(Cl)cc1Cl`, the cell number change was -12.5%. Also, the AC50 under setting [2] was 32.6 µM [falling, partial curve]. For the compound `COc1ccc(S(=O)(=O)N2CCCCCC2)cc1NC(=O)CN(C)Cc1ccc2c(c1)OCO2`, the cell number change is -11.2%. For the same compound, the AC50 under setting [1] was 6.51 µM [rising, single point]. As to `C=CCn1c(CCNC(=O)c2ccccc2F)nnc1SCC(=O)Nc1nc2ccccc2s1`, the cell number change is -23.5%. In addition, under setting [2], the AC50 is 18.4 µM [falling, single point].

On to `C/C(=N/OC(=O)c1ccc(C)cc1)C(=O)c1ccc(Br)cc1`, for which the cell number change was determined as 36.3%. Besides, the AC50 under setting [1] is 13 µM [rising, partial curve, poor fit]. Regarding `COCCN(C(=O)COC(=O)CC1CCCCC1)c1c(N)n(Cc2ccccc2)c(=O)[nH]c1=O`, the cell number change is -13.8%. Take `O=C(CCSCCc1ccccn1)Nc1cc(F)ccc1F`: the cell number change is 39.9%. The AC50 under setting [1] is 7.31 µM [rising, partial curve]. Moreover, the AC50 under setting [2] is 0.58 µM [rising, single point]. As to `O=C(NNC(=O)c1cccc(Br)c1)C(=O)N1CCCCC1`, the cell number change is -17.8%. Moreover, under setting [2], the concentration at half-maximal activity (AC50) was 3.26 µM [falling, full curve, poor fit]. With `COC(=O)c1[nH]c2cc(OC)c(OC)cc2c1NC(=O)CN1C[C@H]2C[C@@H](C1)c1cccc(=O)n1C2`, the cell number change is 10.1%. In addition, under setting [2], the AC50 was 0.116 µM [rising, full curve, poor fit]. As to `COc1ccccc1/C=C/CN1CCC(n2nccc2NC(=O)CCc2ccccc2)CC1`, the cell number change was -28.5%. Also, the AC50 under setting [2] was 23.1 µM [falling, single point]. In the case of `Cc1ccc(C)c(N2CCN(S(=O)(=O)c3ccc4c(c3)CCC(=O)N4)CC2)c1`, the cell number change amounted to 7.52%.

`CC(=O)Nc1ccc(S(=O)(=O)NNC(=O)COc2ccc(Cl)cc2Cl)cc1`: the cell number change amounted to 49%. Moreover, under setting [1], the AC50 was 16.4 µM [rising, partial curve]. The AC50 under setting [2] was 8.2 µM [rising, partial curve]. With `COc1cc(CNc2nc3ccccc3n2C)cc(OC)c1OC`, the cell number change was determined as 16.2%. Further, the concentration at half-maximal activity (AC50) under setting [2] is 4.61 µM [rising, partial curve, poor fit]. On to `CCOC(=O)c1ccc(N2C(=O)c3n[nH]c(C)c3C2c2cccnc2)cc1` (stereo not given), for which the cell number change was -5.27%. In addition, the AC50 under setting [2] is 0.164 µM [rising, full curve, poor fit]. Turning to `CCOc1ccc(/C=C2\SC(=S)N(CCC(=O)N(CCO)c3ccccc3)C2=O)cc1`, the cell number change was -33.8%. Further, the AC50 under setting [1] was 14.6 µM [falling, single point].

For the compound `CCS(=O)(=O)NCCc1csc(-c2ccc(OC)c(OC)c2)n1`, the cell number change was found to be 10.6%. Also, under setting [2], the AC50 is 2.59 µM [rising, single point]. Turning to `CN(C(=O)COc1ncnc2c1cnn2-c1ccccc1)C1CCCCC1`, the cell number change came to 2.06%. As for `CNC(=S)N(Cc1ccco1)Cc1cc2cc(OC)ccc2[nH]c1=O`, the cell number change came out at 1.61%. Take `COc1ccc(C(=O)N2CCN(Cc3ccccc3[N+](=O)[O-])CC2)cc1`: the cell number change was -10.1%. The concentration at half-maximal activity (AC50) under setting [2] is 6.51 µM [rising, single point]. Take `CCN(CC)C(=O)c1[nH]cnc1C(=O)NCc1ccc(CNC(=O)OC(C)(C)C)cc1`: the cell number change is 21.9%. In addition, under setting [2], the AC50 is 0.00411 µM [rising, full curve, poor fit].

Regarding `Cn1c(C(=O)NCc2cccs2)cc2oc3ccccc3c21`, the AC50 under setting [2] was 16.4 µM [falling, single point]. With `O=C(CC1C(=O)NCCN1Cc1ccccc1C(F)(F)F)NC1CCCCCC1` (stereo not given), the cell number change was 27.2%. Besides, the AC50 under setting [2] is 10.3 µM [falling, partial curve]. In the case of `COc1ccc(C2CC(c3ccccc3OC(C)=O)=NN2C(=O)/C=C/c2ccccc2)cc1OC` (stereo not given), the cell number change was -21.6%. Besides, under setting [2], the AC50 was 10.3 µM [falling, partial curve]. Consider `CCN(CC(=O)NCc1cccs1)C(=O)CCc1c[nH]c2ccccc12`, for which the AC50 under setting [2] was 5.17 µM [rising, partial curve, poor fit]. On to `CCCOC(=O)/C(=C\c1ccc([N+](=O)[O-])o1)NC(=O)c1ccccc1`, for which the cell number change is -21.7%. Also, under setting [2], the AC50 is 16.4 µM [falling, partial curve, poor fit]. In the case of `COc1ccc(CCNC(=O)C2CCN(C(=O)c3ccc([N+](=O)[O-])cc3)CC2)cc1`, the cell number change was determined as 15.8%. The same measure, in the same setting: under `Fc1ccc(/C=N/n2c(C3CCCCC3)n[nH]c2=S)cc1` stands -11.1%. For `CCCCOc1ccc(S(=O)(=O)Nc2cc(OC)ccc2OC)cc1`, the cell number change was -24.8%. The AC50 under setting [2] is 18.4 µM [rising, single point]. For the compound `CN(CC(=O)Nc1c(Cl)cccc1Cl)C(=O)C1CC(=O)N(Cc2ccccc2)C1` (stereo not given), the cell number change was -44.8%. The AC50 under setting [1] is 32.6 µM [falling, single point]. For the same compound, under setting [2], the AC50 was 18.4 µM [falling, partial curve, poor fit]. For `O=C(NCC1CCCO1)c1ccc(-c2cccc(C(F)(F)F)c2)o1` (stereo not given), the cell number change came out at 6.45%.

For the compound `NS(=O)(=O)c1ccc(N=C2C(=O)Nc3ccccc32)cc1`, the cell number change was -57.6%. In addition, the AC50 under setting [2] is 29.1 µM [falling, single point].

`Cc1ccc(C)c(N2CCN(C(=O)C3CCCCN3S(=O)(=O)c3ccc(F)cc3)CC2)c1` (stereo not given): the cell number change is -3.61%. Also, the AC50 under setting [2] was 29.1 µM [rising, single point]. In the case of `O=C1/C(=C/c2ccco2)Cc2ccccc21`, the AC50 under setting [2] was 25.9 µM [falling, single point]. With `CCOC(=O)C1CCN(CC(=O)Nc2cc(S(=O)(=O)N3CCCCC3)ccc2Cl)CC1`, the cell number change was found to be 122%. Still for that read-out and setting: under `COc1ccc(Cl)cc1NC(=O)c1cc(-c2ccccc2O)n[nH]1` stands -15.6%.

For the compound `Cc1cc([N+](=O)[O-])nn1Cc1ccc(F)cc1`, the cell number change was -64.7%. For the same compound, the AC50 under setting [1] is 1.84 µM [falling, partial curve]. Consider `O=C(c1cccc(Cl)c1)N1CCN(Cc2ccccc2)CC1`, for which the cell number change was found to be 2.91%. Besides, the half-maximal activity concentration (AC50) under setting [2] is 29.1 µM [rising, single point]. Turning to `COc1cc(NC(=O)c2cc3ccccc3cc2O)c(OC)cc1Cl`, the cell number change is -69.3%. Also, the AC50 under setting [1] is 18.4 µM [falling, single point]. In addition, the concentration at half-maximal activity (AC50) under setting [2] was 16.4 µM [falling, partial curve].

As for `CCn1c(-c2csc3ccccc23)n[nH]c1=S`, the cell number change is 15.1%. Moreover, under setting [2], the AC50 was 9.2 µM [rising, partial curve]. For `N#Cc1cc2c(nc1SCC1COc3ccccc3O1)CCC2` (stereo not given), the cell number change turned out to be 0.849%. Besides, the AC50 under setting [2] is 4.11 µM [rising, full curve]. For `Cn1c(N/N=C/c2cc3ccccc3nc2Cl)nc2ccccc21`, the cell number change stood at 44.5%. Moreover, the AC50 under setting [1] was 23.1 µM [rising, partial curve]. `N#CC1(NC(=O)COC(=O)CCN=C2NS(=O)(=O)c3ccccc32)CCCCC1`: the cell number change was -22.6%. Besides, the half-maximal activity concentration (AC50) under setting [2] is 2.31 µM [falling, single point]. On to `C#CC(CC)(CC)NC(=O)NC1CCCCC1`, for which the cell number change was -25%. Further, the AC50 under setting [2] was 29.1 µM [falling, single point]. On to `CCCCCCOc1ccc(N2C(=O)CC(SCCN)C2=O)cc1` (stereo not given), for which the cell number change is -17.5%. For the same compound, under setting [2], the AC50 is 0.146 µM [falling, full curve, poor fit].

Turning to `COc1cc(NC(=O)C(C)C)ccc1NC(=O)c1ccco1`, the cell number change worked out at 21.7%. For the same compound, the AC50 under setting [1] is 0.291 µM [rising, full curve, poor fit]. On to `O=S(=O)(c1cccs1)N1CCN(c2cccc(Cl)c2)CC1`, for which the cell number change came to 2.63%. Besides, the AC50 under setting [2] is 35.5 µM [rising, single point]. On to `CC(OC(=O)C1=COCCO1)C(=O)NC1CCCCC1C` (stereo not given), for which the cell number change is 7.04%. Regarding `COc1ccc(NS(=O)(=O)c2cccc(C(=O)NC3CCC(O)CC3)c2)cc1` (stereo not given), the cell number change was -38.1%. In addition, the AC50 under setting [1] was 11.6 µM [falling, single point]. Moreover, under setting [2], the AC50 was 11.6 µM [falling, single point].

Turning to `CC(C)Cn1c(N)c(C(=O)COC(=O)CCc2nc3ccccc3c(=O)[nH]2)c(=O)n(C)c1=O`, the cell number change was determined as 16%. Under setting [1], the AC50 is 6.51 µM [falling, single point]. Further, under setting [2], the AC50 was 6.51 µM [falling, single point].
